From article PMC10406883
No constants are given. Whether binding was seen depends on the method and setting. Binding seen in cells or lysates may run through a third protein. These calls come from enrichment with a bait or labelling near it, and not all partners need be listed.

Chains of the proteins cited; added tags and fusions are not shown. Residues count along the entry.
UniProt P08195, residues 99-630: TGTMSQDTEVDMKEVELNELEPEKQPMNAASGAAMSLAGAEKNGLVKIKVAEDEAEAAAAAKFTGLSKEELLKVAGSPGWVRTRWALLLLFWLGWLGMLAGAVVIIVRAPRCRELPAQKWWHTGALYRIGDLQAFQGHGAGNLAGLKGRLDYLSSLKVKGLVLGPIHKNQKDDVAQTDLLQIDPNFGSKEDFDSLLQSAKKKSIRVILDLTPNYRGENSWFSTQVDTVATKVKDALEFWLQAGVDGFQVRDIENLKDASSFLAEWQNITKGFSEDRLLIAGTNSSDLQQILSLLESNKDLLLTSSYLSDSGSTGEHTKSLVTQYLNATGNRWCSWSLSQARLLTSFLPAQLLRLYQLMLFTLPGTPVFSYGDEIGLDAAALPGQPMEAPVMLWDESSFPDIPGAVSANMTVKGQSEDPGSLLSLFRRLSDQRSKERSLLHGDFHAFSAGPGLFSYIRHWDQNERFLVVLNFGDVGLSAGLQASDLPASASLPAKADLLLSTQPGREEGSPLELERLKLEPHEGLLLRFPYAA

Target: 4F2hc wildtype, overexpressed from plasmid (SLC3A2^OE) (human) (UniProt P08195)
Experiment: affinity purification with mass spectrometry; immunoprecipitation by the 4F2hc antibody from SLC3A2 overexpressed PANC-1 cells, then LC-MS/MS (IP-LC-MS/MS)

- binding: binds
B1: glycosyltransferase B3GNT3, endogenous (enzyme, UniProt Q9Y2A9 1-372)
chain: MKYLRHRRPNATLILAIGAFTLLLFSLLVSPPTCKVQEQPPAIPEALAWPTPPTRPAPAPCHANTSMVTHPDFATQPQHVQNFLLYRHCRHFPLLQDVPPSKCAQPVFLLLVIKSSPSNYVRRELLRRTWGRERKVRGLQLRLLFLVGTASNPHEARKVNRLLELEAQTHGDILQWDFHDSFFNLTLKQVLFLQWQETRCANASFVLNGDDDVFAHTDNMVFYLQDHDPGRHLFVGQLIQNVGPIRAFWSKYYVPEVVTQNERYPPYCGGGGFLLSRFTAAALRRAAHVLDIFPIDDVFLGMCLELEGLKPASHSGIRTSGVRAPSQRLSSFDPCFYRDLLLVHRFLPYEMLLMWDALNQPNLTCGNQTQIY
